Reference: PubChem BioAssay AID248 (DTP/NCI, 2004)
The list shows only some results of the screen, not a fair sample: it is rich in T/C values a quarter to a half above the control, in often repeated tests (any T/C) and in doses without a T/C. Other doses and runs of a compound stand elsewhere. T/C: endpoint of the treated group in % of that of the vehicle group. Some entries give survivors of the animals treated and no T/C: the source holds a T/C of zero for them, seemingly a mark for toxic or unscored doses. Some doses without a T/C left all or most animals alive at the check, yet need not have been tolerated: the source hardly ever lists a survival T/C far under the control, and the zero likely stands for such cases as well. Survivors were counted at the toxicity check, usually on the fifth day, unless a day is given; later deaths do not show. Schedule codes are those of the source, taken here to give the interval after Q, in days (D) or hours (H), and the number of doses after X. Some structures stand for samples that the source files as different forms (salt, stereo form or complex); doses refer to the form tested. Brackets with × give the number of equal values in this list. Where survival is the endpoint, the PubChem record calls one and a half times the control and up active, and a quarter to a half above the control has no call in these data; cut-offs in other NCI protocols can differ. Some entries hold several experiments; their values stand side by side, smallest first. Some T/C values are followed by the survivors on the day toxicity was checked, most often the fifth; without a count, all were alive then.

System: L1210 leukemia ip in BDF1 mice, survival T/C
Assay: NCI In Vivo Anticancer Drug Screen. Data for tumor model L1210 Leukemia (intraperitoneal) in B6D2F1 (BDF1) mice
Conditions: T/C endpoint: mean survival time, higher T/C = longer survival
[1] = dose: 400.0 mg/kg/injection, schedule: Q04DX003 (ip), vehicle: saline
[2] = dose: 20.0 mg/kg/injection, schedule: Q01DX009 (ip), vehicle: saline
[3] = dose: 100.0 mg/kg/injection, schedule: Q01DX001 (ip), vehicle: saline
[4] = dose: 150.0 mg/kg/injection, schedule: Q01DX009 (ip), vehicle: Klucel (hydroxypropylcellulose) (HPC)
[5] = dose: 200.0 mg/kg/injection, schedule: Q01DX001 (ip), vehicle: carboxymethylcellulose (CMC)
[6] = dose: 400.0 mg/kg/injection, schedule: Q01DX001 (ip), vehicle: carboxymethylcellulose (CMC)
[7] = dose: 100.0 mg/kg/injection, schedule: Q04DX003 (ip), vehicle: Klucel (hydroxypropylcellulose) (HPC)

NC(Cc1ccccc1)c1ccccc1 (configuration not stated) (tested in a mixture with another compound)
survivor count (dose: 200.0 mg/kg/injection, schedule: Q04DX003 (ip), vehicle: saline): 5 of 6
survivor count [1]: 0 of 6 (2×)

O=C(COC(=O)c1ccccc1)NCCCCc1ccccc1
survivor count (dose: 100.0 mg/kg/injection, schedule: Q04DX002 (ip), vehicle: saline with Tween-80): 3 of 3
survivor count (dose: 400.0 mg/kg/injection, schedule: Q01DX001 (ip), vehicle: saline with Tween-80): 6 of 6
survivor count (dose: 400.0 mg/kg/injection, schedule: Q04DX003 (ip), vehicle: saline with Tween-80): 6 of 6

CC(=O)OCC(NC(=O)N(CCCl)N=O)C(OC(C)=O)C(OC(C)=O)C(COC(C)=O)OC(C)=O (configuration not stated)
T/C (dose: 6.0 mg/kg/injection, schedule: Q01DX001 (ip), vehicle: saline + alcohol): 138 % of control
survivor count (dose: 30.0 mg/kg/injection, schedule: Q01DX001 (ip), vehicle: saline + alcohol): 10 of 10
survivor count (dose: 45.0 mg/kg/injection, schedule: Q01DX001 (ip), vehicle: saline + alcohol): 10 of 10
survivor count (dose: 67.0 mg/kg/injection, schedule: Q01DX001 (ip), vehicle: saline + alcohol): 10 of 10

O=C(CCC[n+]1ccccc1)CC(O)(C(F)(F)F)C(F)(F)F
survivor count [1]: 0 of 6

CCCCCCCCCCCCN (tested in a mixture with another compound)
survivor count (dose: 175.0 mg/kg/injection, schedule: Q01DX001 (ip), vehicle: Klucel (hydroxypropylcellulose) (HPC)): 2 of 6
survivor count (dose: 350.0 mg/kg/injection, schedule: Q01DX001 (ip), vehicle: Klucel (hydroxypropylcellulose) (HPC)): 0 of 6

COC12C(COC(=O)NCCO)C3=C(C(=O)C(C)=C(N)C3=O)N1CC1NC12 (configuration not stated)
T/C [2]: 140 % of control
survivor count (dose: 21.0 mg/kg/injection, schedule: Q04DX003 (ip), vehicle: saline): 10 of 10
survivor count (dose: 43.0 mg/kg/injection, schedule: Q01DX001 (ip), vehicle: saline): 10 of 10
T/C (dose: 43.0 mg/kg/injection, schedule: Q01DX003 (ip), vehicle: Klucel (hydroxypropylcellulose) (HPC)): 149 % of control
survivor count (dose: 43.0 mg/kg/injection, schedule: Q04DX003 (ip), vehicle: saline): 10 of 10
T/C (dose: 65.0 mg/kg/injection, schedule: Q01DX001 (ip), vehicle: Klucel (hydroxypropylcellulose) (HPC)): 134 % of control
survivor count (dose: 65.0 mg/kg/injection, schedule: Q01DX001 (ip), vehicle: saline): 10 of 10
T/C (dose: 65.0 mg/kg/injection, schedule: Q01DX003 (ip), vehicle: Klucel (hydroxypropylcellulose) (HPC)): 149 % of control
survivor count (dose: 65.0 mg/kg/injection, schedule: Q01DX009 (ip), vehicle: Klucel (hydroxypropylcellulose) (HPC)): 10 of 10
survivor count (dose: 65.0 mg/kg/injection, schedule: Q04DX003 (ip), vehicle: saline): 10 of 10
T/C (dose: 100.0 mg/kg/injection, schedule: Q01DX001 (ip), vehicle: Klucel (hydroxypropylcellulose) (HPC)): 139 % of control
survivor count [3]: 9 of 10
survivor count (dose: 100.0 mg/kg/injection, schedule: Q01DX009 (ip), vehicle: Klucel (hydroxypropylcellulose) (HPC)): 6 of 10
T/C (dose: 100.0 mg/kg/injection, schedule: Q04DX002 (ip), vehicle: Klucel (hydroxypropylcellulose) (HPC)): 137 % of control
survivor count (dose: 100.0 mg/kg/injection, schedule: Q04DX003 (ip), vehicle: saline): 10 of 10
survivor count (dose: 150.0 mg/kg/injection, schedule: Q01DX001 (ip), vehicle: saline): 6 of 10
survivor count [4]: 1 of 10
survivor count (dose: 150.0 mg/kg/injection, schedule: Q04DX003 (ip), vehicle: saline): 10 of 10
survivor count (dose: 225.0 mg/kg/injection, schedule: Q01DX001 (ip), vehicle: saline): 10 of 10
survivor count (dose: 225.0 mg/kg/injection, schedule: Q01DX009 (ip), vehicle: Klucel (hydroxypropylcellulose) (HPC)): 0 of 10
survivor count (dose: 225.0 mg/kg/injection, schedule: Q04DX003 (ip), vehicle: saline): 7 of 10

CC(C)(CO)NCC1CCCC(CNC(C)(C)CO)C1 (configuration not stated)
survivor count [5]: 1 of 4
survivor count [6]: 1 of 4

CN=C(N)c1ccc(N=C(N)c2ccc(N=C(N)c3ccc(N=C(O)c4cccc(C(O)=Nc5ccc(C(N)=Nc6ccc(C(N)=Nc7ccc(C(N)=NC)cc7)cc6)cc5)c4)cc3)cc2)cc1
T/C (dose: 3.25 mg/kg/injection, schedule: Q01DX015 (ip), vehicle: water): 128 % of control
T/C (dose: 6.5 mg/kg/injection, schedule: Q01DX015 (ip), vehicle: water): 142 % of control
T/C (dose: 26.0 mg/kg/injection, schedule: Q01DX015 (ip), vehicle: water): 148 % of control

O=C1C=CC(=O)c2nc(-c3ccccn3)c(-c3ccccn3)nc21
survivor count [7]: 1 of 6
survivor count (dose: 200.0 mg/kg/injection, schedule: Q04DX003 (ip), vehicle: Klucel (hydroxypropylcellulose) (HPC)): 1 of 6
survivor count (dose: 400.0 mg/kg/injection, schedule: Q04DX003 (ip), vehicle: Klucel (hydroxypropylcellulose) (HPC)): 0 of 6

ClC1CCC(Cl)C2CCC3C(Cl)CCC1[S+]23 (configuration not stated)
survivor count (dose: 75.0 mg/kg/injection, schedule: Q01DX009 (ip), vehicle: Klucel (hydroxypropylcellulose) (HPC)): 0 of 6
survivor count [4]: 0 of 6
survivor count (dose: 300.0 mg/kg/injection, schedule: Q01DX009 (ip), vehicle: Klucel (hydroxypropylcellulose) (HPC)): 0 of 6

CC[As](=O)(O)CC
survivor count [1]: 0 of 6

CCOc1cc(C=Nc2cc(Cl)c(O)c(Cl)c2)ccc1N(CCCl)CCCl
T/C (dose: 10.0 mg/kg/injection, schedule: Q01DX009 (ip), vehicle: carboxymethylcellulose (CMC)): 127 % of control
T/C (dose: 20.0 mg/kg/injection, schedule: Q01DX009 (ip), vehicle: carboxymethylcellulose (CMC)): 129 and 133 % of control
T/C [2]: 127 % of control
T/C (dose: 30.0 mg/kg/injection, schedule: Q01DX009 (ip), vehicle: carboxymethylcellulose (CMC)): 147 % of control
survivor count (dose: 40.0 mg/kg/injection, schedule: Q01DX009 (ip), vehicle: saline): 5 of 6
T/C (dose: 44.0 mg/kg/injection, schedule: Q01DX001 (ip), vehicle: carboxymethylcellulose (CMC)): 127 % of control
T/C (dose: 66.0 mg/kg/injection, schedule: Q01DX001 (ip), vehicle: carboxymethylcellulose (CMC), evaluated on day 30): 134 % of control
T/C (dose: 66.0 mg/kg/injection, schedule: Q01DX001 (ip), vehicle: carboxymethylcellulose (CMC), run until all animals had died): 132 % of control
survivor count (dose: 66.0 mg/kg/injection, schedule: Q01DX009 (ip), vehicle: other): 2 of 6
T/C (dose: 100.0 mg/kg/injection, schedule: Q01DX001 (ip), vehicle: carboxymethylcellulose (CMC), evaluated on day 30): 138 % of control
T/C (dose: 100.0 mg/kg/injection, schedule: Q01DX001 (ip), vehicle: carboxymethylcellulose (CMC), run until all animals had died): 135 % of control
T/C [3]: 136 % of control [5 of 6 alive]
survivor count (dose: 100.0 mg/kg/injection, schedule: Q01DX009 (ip), vehicle: other): 0 of 6
T/C (dose: 150.0 mg/kg/injection, schedule: Q01DX001 (ip), vehicle: carboxymethylcellulose (CMC), evaluated on day 30): 139 % of control
T/C (dose: 150.0 mg/kg/injection, schedule: Q01DX001 (ip), vehicle: carboxymethylcellulose (CMC), run until all animals had died): 135 % of control
survivor count (dose: 150.0 mg/kg/injection, schedule: Q01DX009 (ip), vehicle: other): 0 of 6
survivor count [5]: 0 of 4
survivor count (dose: 200.0 mg/kg/injection, schedule: Q01DX001 (ip), vehicle: saline): 0 of 6
survivor count [6]: 0 of 4

C=CCC1(/C(C)=C/C)C(=O)NC(=O)NC1=O
survivor count (dose: 300.0 mg/kg/injection, schedule: Q01DX001 (ip), vehicle: saline): 0 of 6

CNc1ccc2cc(Br)ccc2c1
survivor count [7]: 2 of 6

CCOC(=O)NCC(CCN(C)C)(CN(C)C)c1cccc2ccccc12 (configuration not stated)
survivor count (dose: 200.0 mg/kg/injection, schedule: Q04DX002 (ip), vehicle: Klucel (hydroxypropylcellulose) (HPC)): 0 of 3
